Literature values as cited in patent US10767187B2 (The State of Israel, Ministry of Agriculture & Rural …, priority 2016, dated 2020).
Some of these results come from one statement about several compounds together. For at least one compound, name, drawing or mass did not settle the structure.

Settings: per weight unit; cited from earlier work

Structure (SMILES) | Sweetness relative to sucrose
C[C@@H]1O[C@@H](O[C@H]2[C@H](Oc3cc(O)c(C(=O)CCc4ccc(O)cc4)c(O)c3)O[C@H](CO)[C@@H](O)[C@@H]2O)[C@H](O)[C@H](O)[C@H]1O [naringin dihydrochalcone] | up to 1000 fold
COc1ccc(CCC(=O)c2c(O)cc(O[C@@H]3O[C@H](CO)[C@@H](O)[C@H](O)[C@H]3O[C@@H]3O[C@@H](C)[C@H](O)[C@@H](O)[C@H]3O)cc2O)cc1O [neohesperidin dihydrochalcone] | up to 1000 fold
